{"source": "patent US20240122985A1", "about": "“ANTIBODIES, COMBINATIONS COMPRISING ANTIBODIES, BIOMARKERS, USES & METHODS” (KYMAB LIMITED, priority 2016, published 2024)", "key": {"[1]": {"system": "peripheral blood and tissue T-cells", "assay": "Flow cytometry of T-cell subsets after HCT (Tscm, TN, TCM, TEM, Ki-67, OX40, Treg, cytokines)", "format": "in vivo, Rhesus macaque", "settings": "NHP peripheral blood after allogeneic HCT (FIG. 8)", "description": "Longitudinal peripheral blood samples were collected before and after haematopoietic stem cell transplant and at necropsy for flow cytometric analysis of lymphocyte subsets. Lung, liver, colon spleen and lymph node (axillary and inguinal) tissues were collected at necropsy and dissociated or enzymatically digested as appropriate for subsequent analysis of lymphocyte infiltrates by flow cytometry. Samples were analysed by multicolour flow cytometry using a LSRFortessa cell analyser (BD Biosciences) using the following T lymphocyte marker probes: CD3 (APC-Cy7 label; clone SP34-2, BD Biosciences), CD4 (BV786 label; clone L200, BD Biosciences), CD8 (BUV395 label; clone RPA-T 8, BD Bioscences), CD28 (PE-Cy7 label; clone CD28.2, eBioscience), CD95 (BV605 label; clone DX2, Biolegend). Proliferating cell populations were identified using Ki-67 (FITC label, Dako). […]\nBlood was collected into tubes with Sodium EDTA, and then red blood cells were lysed with lysis buffer containing ammonium chloride. […] Data were analysed using FloJo. […]\nPeripheral blood mononuclear cells were isolated at different time points by Ficoll-Paque gradient and then were stained for cell surface markers (CD3, CD4, CD8) followed by fixation/permeabilization (using BD Cytofix/Cytoperm kit) and intracellular staining for Ki-67. Ki-67 expression in NHP peripheral blood CD4^+ (FIG. 8A) and CD8^+ (FIG. 8B) was measured. […]"}, "[2]": {"system": "Rhesus macaque model of haploidentical hematopoietic stem cell transplantation", "settings": "rhesus monkey recipients of haploidentical half-sibling HSCT; data taken from Furlan et al., 2015; cited from earlier work"}, "[3]": {"system": "Rhesus Macaque Graft versus Host Disease (GvHD) model", "settings": "Table 8, per animal, Emory, previously described cohort; cited from earlier work"}}, "note": "“And” between values parts separate entries of the source, which are not always exact repeats. Equal entries are not always repeated. At least one compound was matched to its structure with a doubt left."}
{"smiles": "CO[C@H]1C[C@@H]2CC[C@@H](C)[C@@](O)(O2)C(=O)C(=O)N2CCCC[C@H]2C(=O)O[C@H]([C@H](C)C[C@@H]2CC[C@@H](O)[C@H](OC)C2)CC(=O)[C@H](C)/C=C(\\C)[C@@H](O)[C@@H](OC)C(=O)[C@H](C)C[C@H](C)/C=C/C=C/C=C/1C", "note": "[rapamycin, rapamycin (sirolimus)]", "values": [{"measurement": "Ki-67 expression on T-cells / T-cell proliferation", "setting": "[1]", "result": "does not effectively control the number of proliferating T-cells"}, {"measurement": "median survival time, MST", "setting": "[2]", "result": 17, "unit": "days"}, {"measurement": "Survival", "setting": "[3]", "result": "14 day (2×) and 12 day and 11 day and 28 day and 22 day"}]}
